The nature of this data set: general procedure: Fmoc solid-phase peptide synthesis; Rink-amide MBHA resin (0.57 mmol/g); HCTU/NMM. Conditions: whole synthesis; for final HPLC purity: UV detection at 220 and 254.

Plain letter strings leave the end groups untold.

As to “GSSVYSGR (N-terminal Abz, C-terminal Tyr(3-NO2) FRET pair)”, the isolated yield worked out at 25.2% and the “final HPLC purity” value is recorded as 90.2%.
In the case of “GSSYYSGA (N-terminal Abz, C-terminal Tyr(3-NO2) FRET pair)”, the isolated yield was determined as 33.1% and the “final HPLC purity” value is listed as 95.7%.
With “HSSKLQYFGKL (N-terminal Abz, C-terminal Tyr(3-NO2) FRET pair)”, the isolated yield worked out at 5.6% and the “final HPLC purity” value was determined as 90.9%.
In the case of “ISQYSSAT (N-terminal Abz, C-terminal Tyr(3-NO2) FRET pair)”, the isolated yield came out at 5.6% and the “final HPLC purity” value is 94.8%.
On the same counts, the results for “KWGKSAPLGLAG (N-terminal Abz, C-terminal Tyr(3-NO2) FRET pair)” are 19.5% and 92.2%.
On the same counts, the results for “RGRKPQPLVD (N-terminal Abz, C-terminal Tyr(3-NO2) FRET pair)” are 14.4% and 86.9%.
In the same order, the values of RGRKPY-Nle-LQG are 25.1% and 89.8%.
For the substance “RGRKPYMLQG (N-terminal Abz, C-terminal Tyr(3-NO2) FRET pair)”, the isolated yield is listed as 8.1% and the “final HPLC purity” value stood at 77%.
On to “RGRKSPANLVG (N-terminal Abz, C-terminal Tyr(3-NO2) FRET pair)”, for which the isolated yield is 31.9% and the “final HPLC purity” value is 90.6%.
On to “RGRKSPQPLVD (N-terminal Abz, C-terminal Tyr(3-NO2) FRET pair)”, for which the isolated yield worked out at 16.0% and the “final HPLC purity” value is 90.7%.
On to RGRKSPY-Nle-LQG, for which the isolated yield was 28.6% and the “final HPLC purity” value turned out to be 71.8%.
In the same order, the values of “RGRKSPYMLQG (N-terminal Abz, C-terminal Tyr(3-NO2) FRET pair)” are 5.6% and 89.8%.
On the same counts, the results for “RGRKSQPLVD (N-terminal Abz, C-terminal Tyr(3-NO2) FRET pair)” are 20.5% and 85.1%.
In the same order, the values of “RGRKVANLVG (N-terminal Abz, C-terminal Tyr(3-NO2) FRET pair)” are 6.7% and 94.5%.
Regarding “RGRRAANLVRPLGYFGKL (N-terminal Abz, C-terminal Tyr(3-NO2) FRET pair)”, the isolated yield was found to be 8.1% and the “final HPLC purity” value came out at 95.4%.
Regarding “RGRRHSSKLQPLGYFGKL (N-terminal Abz, C-terminal Tyr(3-NO2) FRET pair)”, the isolated yield came out at 16.2% and the “final HPLC purity” value turned out to be 98.3%.
As for “RGRRPLGLAGGSG (N-terminal Abz, C-terminal Tyr(3-NO2) FRET pair)”, the isolated yield is listed as 17.1% and the “final HPLC purity” value turned out to be 90.3%.
In the case of “RGRRVANLVG (N-terminal Abz, C-terminal Tyr(3-NO2) FRET pair)”, the isolated yield is reported as 28.4% and the “final HPLC purity” value is listed as 91.3%.
Turning to “RGRRVANPLGLAGSG (N-terminal Abz, C-terminal Tyr(3-NO2) FRET pair)”, the isolated yield amounted to 16.2% and the “final HPLC purity” value is listed as 91.6%.
On to “RGRRVANPLGYFGKL (N-terminal Abz, C-terminal Tyr(3-NO2) FRET pair)”, for which the isolated yield was 16.7% and the “final HPLC purity” value stood at 96.8%.
Turning to “RQRKVANLVG (N-terminal Abz, C-terminal Tyr(3-NO2) FRET pair)”, the isolated yield stood at 24.5% and the “final HPLC purity” value came out at 90.4%.
On the same counts, the results for RQRRS-Nle-PLGLAG are 25.3% and 90.2%.
Regarding “RQRRSAAPLGLAG (N-terminal Abz, C-terminal Tyr(3-NO2) FRET pair)”, the isolated yield came to 26.4% and the “final HPLC purity” value is listed as 89.4%.
In the same order, the values of “RQRRSPLGLAG (N-terminal Abz; C-terminal Tyr(3-NO2))” are 17.6% and 97.2%.
In the same order, the values of “RQRRSVVGG (N-terminal Abz, C-terminal Tyr(3-NO2) FRET pair)” are 10.4% and 80.1%.
On the same counts, the results for “RYGKSAPLGLAG (N-terminal Abz, C-terminal Tyr(3-NO2) FRET pair)” are 33.8% and 90.4%.
For the substance “SGRHSSKLQPLGYFGKL (N-terminal Abz, C-terminal Tyr(3-NO2) FRET pair)”, the isolated yield amounted to 20% and the “final HPLC purity” value worked out at 97.8%.
Take “SGRPLGYFGKL (N-terminal Abz, C-terminal Tyr(3-NO2) FRET pair)”: the isolated yield was 8.5% and the “final HPLC purity” value came to 95.4%.
On the same counts, the results for “SGRVAGLVG (N-terminal Abz; C-terminal Tyr(3-NO2))” are 32.4% and 91.2%.
Consider “SGRVANPLGGSG (N-terminal Abz, C-terminal Tyr(3-NO2) FRET pair)”, for which the isolated yield came out at 20.3% and the “final HPLC purity” value turned out to be 89.8%.
In the same order, the values of “SGRVAPQPLVD (N-terminal Abz, C-terminal Tyr(3-NO2) FRET pair)” are 17.4% and 90.9%.
With SGRVAPY-Nle-LQG, the isolated yield came out at 24.6% and the “final HPLC purity” value is given as 92%.
In the same order, the values of “SGRVAPYMLQG (N-terminal Abz, C-terminal Tyr(3-NO2) FRET pair)” are 3.5% and 79.5%.
Regarding “SGRVLGPLNLSG (N-terminal Abz; C-terminal Tyr(3-NO2))”, the isolated yield is 16.6% and the “final HPLC purity” value is on record as 98.0%.
Take “SGRVLPAGLVG (N-terminal Abz; C-terminal Tyr(3-NO2))”: the isolated yield was determined as 28.4% and the “final HPLC purity” value was found to be 98.0%.
In the case of “SGRVLPANLVG (N-terminal Abz; C-terminal Tyr(3-NO2))”, the isolated yield worked out at 25.9% and the “final HPLC purity” value stood at 90.6%.
Consider “SGRVLPYAMTA (N-terminal Abz, C-terminal Tyr(3-NO2) FRET pair)”, for which the isolated yield worked out at 44.8% and the “final HPLC purity” value amounted to 94.3%.
On the same counts, the results for “SGRVLRKAGPAGLVG (N-terminal Abz; C-terminal Tyr(3-NO2))” are 17.2% and 90.5%.
“SGRVLRKAGPQPLVD (N-terminal Abz; C-terminal Tyr(3-NO2))”: the isolated yield turned out to be 22.1% and the “final HPLC purity” value is 95.2%.
On the same counts, the results for “SGRVLTLRKAALPLAM (N-terminal Abz; C-terminal Tyr(3-NO2))” are 7.6% and 91.5%.
As for “SGRVLTLRKAPWGLLE (N-terminal Abz; C-terminal Tyr(3-NO2))”, the isolated yield was determined as 20.3% and the “final HPLC purity” value amounted to 95.5%.
On the same counts, the results for “SGRVQPLVD (N-terminal Abz, C-terminal Tyr(3-NO2) FRET pair)” are 21.8% and 93%.
On the same counts, the results for SGRVY-Nle-LQG are 16.3% and 90.3%.
With “SGRVYMLQG (N-terminal Abz, C-terminal Tyr(3-NO2) FRET pair)”, the isolated yield was found to be 13.8% and the “final HPLC purity” value came to 80.4%.
As to “SPLGLAGS (N-terminal Abz, C-terminal Tyr(3-NO2) FRET pair)”, the isolated yield was 25.6% and the “final HPLC purity” value was 93.3%.
In the same order, the values of “SQLYSSPG (N-terminal Abz, C-terminal Tyr(3-NO2) FRET pair)” are 15.2% and 96.3%.
As for “SSLQSSPG (N-terminal Abz, C-terminal Tyr(3-NO2) FRET pair)”, the isolated yield was 12.8% and the “final HPLC purity” value is 92.6%.
In the same order, the values of “SSLYSSPG (N-terminal Abz, C-terminal Tyr(3-NO2) FRET pair)” are 16.6% and 93.5%.
For the substance “SSQYSSPG (N-terminal Abz, C-terminal Tyr(3-NO2) FRET pair)”, the isolated yield is recorded as 9.4% and the “final HPLC purity” value was found to be 89.2%.
In the same order, the values of “SSRAVFRKNLGPLGLAG (N-terminal Abz; C-terminal Tyr(3-NO2))” are 35.6% and 90.9%.
Consider “SSRGPASNRRLPLGLAG (N-terminal Abz; C-terminal Tyr(3-NO2))”, for which the isolated yield is recorded as 22.6% and the “final HPLC purity” value is listed as 98.5%.
On to “SSRGRRGPYMLQG (N-terminal Abz; C-terminal Tyr(3-NO2))”, for which the isolated yield is recorded as 16.8% and the “final HPLC purity” value turned out to be 94.8%.
Consider “SSRVFRKPANLAG (N-terminal Abz; C-terminal Tyr(3-NO2))”, for which the isolated yield stood at 14.6% and the “final HPLC purity” value stood at 95.5%.

The values above are taken from US20240400614A1 (Bright Peak Therapeutics AG, priority 2023, published 2024).
